Assay: TCO click ability (analytical HPLC)
Format: physicochemical
Conditions: formulated 18F-tetrazine added to TCO (1 mg/mL) in PBS

| Compound | TCO click ability (reaction with TCO) |
| --- | --- |
| O=C(O)CN(CC(=O)O)Cc1cc(F)cc(-c2nncnn2)c1 [UB-108, 1-Carboxy-N-(carboxymethyl)-N-(3-fluoro-5-(1,2,4,5-tetrazin-3-yl)benzyl)methanaminium 2,2,2-trifluoroacetate] | reacted immediately |
| O=C(O)CNCc1cc(F)cc(-c2nncnn2)c1 [UB-137, 1-Carboxy-N-(3-fluoro-5-(1,2,4,5-tetrazin-3-yl)benzyl)methanaminium 2,2,2-trifluoroacetate] | reacted immediately |

Reference: patent publication US20240287104A1, “NUCLIDE LABELLED H-TETRAZINES AND USE THEREOF FOR PET AND SPECT PRETARGETED IMAGING AND RADIONUCLIDE THERAPY” (RIGSHOSPITALET, priority 2020, published 2024)
